Reference: article PMC5828088
No constants are given. Whether binding was seen depends on the method and setting. In cells and extracts the contact can be indirect. Some results given as binding are weak or reduced against the parent protein; the word gives no strength.

Sequences of proteins named here, by UniProt entry; tags and fusion partners are left off.
UniProt P67775: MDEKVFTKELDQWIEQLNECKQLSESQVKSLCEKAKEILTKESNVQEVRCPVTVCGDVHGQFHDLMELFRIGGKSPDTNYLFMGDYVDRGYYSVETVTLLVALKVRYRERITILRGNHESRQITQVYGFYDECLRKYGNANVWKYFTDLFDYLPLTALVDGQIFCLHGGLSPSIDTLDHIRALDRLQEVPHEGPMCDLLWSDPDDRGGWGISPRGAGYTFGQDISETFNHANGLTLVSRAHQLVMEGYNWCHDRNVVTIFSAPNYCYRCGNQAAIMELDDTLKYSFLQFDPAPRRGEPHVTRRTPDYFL

Molecular target: protein phosphatase 2 catalytic subunit alpha (PPP2CA) (human (endogenous in MDA-MB-231 and MCF-7)) (UniProt P67775)
Assay: co-IP; anti-PPP2CA antibody conjugated protein G agarose beads on MDA-MB-231 and MCF-7 cells; Western blotting; normal IgG as control

B1: Protein kinase C ζ (PKCζ) (enzyme, UniProt Q05513 1-592)
chain: MPSRTGPKMEGSGGRVRLKAHYGGDIFITSVDAATTFEELCEEVRDMCRLHQQHPLTLKWVDSEGDPCTVSSQMELEEAFRLARQCRDEGLIIHVFPSTPEQPGLPCPGEDKSIYRRGARRWRKLYRANGHLFQAKRFNRRAYCGQCSERIWGLARQGYRCINCKLLVHKRCHGLVPLTCRKHMDSVMPSQEPPVDDKNEDADLPSEETDGIAYISSSRKHDSIKDDSEDLKPVIDGMDGIKISQGLGLQDFDLIRVIGRGSYAKVLLVRLKKNDQIYAMKVVKKELVHDDEDIDWVQTEKHVFEQASSNPFLVGLHSCFQTTSRLFLVIEYVNGGDLMFHMQRQRKLPEEHARFYAAEICIALNFLHERGIIYRDLKLDNVLLDADGHIKLTDYGMCKEGLGPGDTTSTFCGTPNYIAPEILRGEEYGFSVDWWALGVLMFEMMAGRSPFDIITDNPDMNTEDYLFQVILEKPIRIPRFLSVKASHVLKGFLNKDPKERLGCRPQTGFSDIKSHAFFRSIDWDLLEKKQALPPFQPQITDDYGLDNFDTQFTSEPVQLTPDDEDAIKRIDQSEFEGFEYINPLLLSTEESV
binding: binds
